# Data published in the supplement of paper PMC8728848.
# This is one part of the list.
# B1: PX14375A-pdi-503-28-503 (Parabacteroides distasonis) (protein)
# chain: PLGSPEAGDISEERQAFLRLTAVYSVMKDFRYTWSMQCFGDVLSNDATYSGSSNDAQTFTLLENYQYQADHTEILNKYRYSYQCINKANLFIRDMEMADDALFSKYDKEQMIGEAKFIRAYTYFELVKTFGGVPCYTGVLDLDHERLGRASVEEIYSVIEQDLNDAVSVLPKKSEVANYESSYAGRITKGAAIAMQTRIYLYEKKYDEVKKAFEKFQNECGGEYSLVAPEDYTWQFSLDGEHCSSSILEVNMYNSSTQSSYNVNNGNRHVLMSMPRNMTIGFGCAQPTQALADAYDAEGDVIRKKTTLLSTEEAIEIETAAKGDVAPVTDDRTGWYNRKLYLAPGQREENRGNNQPTNLRLIRLAEVYLNYAEACYFSGDIANAQKYLNEVRSHVNLAPKNHTGSQLFEDIMNERHLEFGMEGFRFFDVVRVGWGEKVFNGTKKAEFGAKTPFSAGAEVLPIPQTEIDISDGLITN
# Tests used:
# Test in all cases: glycan array binding signal (z-score within array); higher = stronger binding
# Conditions in all cases: glycan notation: IUPAC condensed, linker removed
# [1] = target: Fuc(a1-3)[Gal3S(b1-4)]GlcNAc6S
# Method in brief: (§1)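 The binding signal is a Z-score computed within each array and averaged over linkers. Arrays of the same protein sequence at different concentrations or buffers were also averaged together. Data originate from 3228 arrays in the Consortium for Functional Glycomics database, kept only where the protein sequence was available.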
# [2] = target: Fuc(a1-3)[GalNAc(b1-4)]GlcNAc
# Method in brief: as §1
# [3] = target: Fuc(a1-3)[GalNAc(b1-4)]GlcNAc6S
# Method in brief: as §1
# Fuc(a1-4)GlcNAc = target: Fuc(a1-4)GlcNAc
# Method in brief: as §1
# Fuc(b1-3)GlcNAc = target: Fuc(b1-3)GlcNAc
# Method in brief: as §1
# Gal(a1-2)Gal = target: Gal(a1-2)Gal
# Method in brief: as §1
# Gal(a1-3)Gal = target: Gal(a1-3)Gal
# Method in brief: as §1
# Gal(a1-3)Gal(b1-3)GlcNAc = target: Gal(a1-3)Gal(b1-3)GlcNAc
# Method in brief: as §1
# [4] = target: Gal(a1-3)Gal(b1-3)GlcNAc(b1-2)Man
# Method in brief: as §1
# [5] = target: Gal(a1-3)Gal(b1-3)GlcNAc(b1-2)Man(a1-3)[Gal(a1-3)Gal(b1-3)GlcNAc(b1-2)Man(a1-6)]Man(b1-4)GlcNAc(b1-4)GlcNAc
# Method in brief: as §1
# [6] = target: Gal(a1-3)Gal(b1-3)GlcNAc(b1-3)GalNAc
# Method in brief: as §1
# [7] = target: Gal(a1-3)Gal(b1-3)GlcNAc(b1-6)GalNAc
# Method in brief: as §1
# [8] = target: Gal(a1-3)Gal(b1-3)[Fuc(a1-4)]GlcNAc(b1-2)Man(a1-3)[Gal(a1-3)Gal(b1-3)[Fuc(a1-4)]GlcNAc(b1-2)Man(a1-6)]Man(b1-4)GlcNAc(b1-4)GlcNAc
# Method in brief: as §1
# Gal(a1-3)Gal(b1-4)Glc = target: Gal(a1-3)Gal(b1-4)Glc
# Method in brief: as §1
# Gal(a1-3)Gal(b1-4)GlcNAc = target: Gal(a1-3)Gal(b1-4)GlcNAc
# Method in brief: as §1
# [9] = target: Gal(a1-3)Gal(b1-4)GlcNAc(b1-2)Man
# Method in brief: as §1
# [10] = target: Gal(a1-3)Gal(b1-4)GlcNAc(b1-2)Man(a1-3)[Gal(a1-3)Gal(b1-4)GlcNAc(b1-2)Man(a1-6)]Man(b1-4)GlcNAc(b1-4)GlcNAc
# Method in brief: as §1
# [11] = target: Gal(a1-3)Gal(b1-4)GlcNAc(b1-3)GalNAc
# Method in brief: as §1
# [12] = target: Gal(a1-3)Gal(b1-4)GlcNAc(b1-6)GalNAc
# Method in brief: as §1
# [13] = target: Gal(a1-3)Gal(b1-4)[Fuc(a1-3)]GlcNAc
# Method in brief: as §1
# [14] = target: Gal(a1-3)Gal(b1-4)[Fuc(a1-3)]GlcNAc(b1-2)Man(a1-3)[Gal(a1-3)Gal(b1-4)[Fuc(a1-3)]GlcNAc(b1-2)Man(a1-6)]Man(b1-4)GlcNAc(b1-4)GlcNAc
# Method in brief: as §1
# Gal(a1-3)GalNAc = target: Gal(a1-3)GalNAc
# Method in brief: as §1
# [15] = target: Gal(a1-3)[Gal(a1-4)]Gal(b1-4)GlcNAc
# Method in brief: as §1
# [16] = target: Gal(a1-4)Gal(b1-3)GlcNAc(b1-2)Man(a1-3)[Gal(a1-4)Gal(b1-3)GlcNAc(b1-2)Man(a1-6)]Man(b1-4)GlcNAc(b1-4)GlcNAc
# Method in brief: as §1
# Gal(a1-4)Gal(b1-4)Glc = target: Gal(a1-4)Gal(b1-4)Glc
# Method in brief: as §1
# Gal(a1-4)Gal(b1-4)GlcNAc = target: Gal(a1-4)Gal(b1-4)GlcNAc
# Method in brief: as §1
# [17] = target: Gal(a1-4)Gal(b1-4)GlcNAc(b1-2)Man(a1-3)[Gal(a1-4)Gal(b1-4)GlcNAc(b1-2)Man(a1-6)]Man(b1-4)GlcNAc(b1-4)GlcNAc
# Method in brief: as §1
# [18] = target: Gal(a1-4)Gal(b1-4)GlcNAc(b1-3)Gal(b1-4)Glc
# Method in brief: as §1
# Gal(a1-4)GlcNAc = target: Gal(a1-4)GlcNAc
# Method in brief: as §1
# Gal(a1-6)Glc = target: Gal(a1-6)Glc
# Method in brief: as §1
# Gal(b1-2)Gal = target: Gal(b1-2)Gal
# Method in brief: as §1
# Gal(b1-3)Gal = target: Gal(b1-3)Gal
# Method in brief: as §1
# Gal(b1-3)Gal(b1-4)GlcNAc = target: Gal(b1-3)Gal(b1-4)GlcNAc
# Method in brief: as §1
# Gal(b1-3)GalNAc = target: Gal(b1-3)GalNAc
# Method in brief: as §1
# [19] = target: Gal(b1-3)GalNAc(a1-3)[Fuc(a1-2)]Gal(b1-4)Glc
# Method in brief: as §1
# [20] = target: Gal(b1-3)GalNAc(a1-3)[Fuc(a1-2)]Gal(b1-4)GlcNAc
# Method in brief: as §1
# Gal(b1-3)GalNAc(b1-3)Gal = target: Gal(b1-3)GalNAc(b1-3)Gal
# Method in brief: as §1
binder,measurement,setting,value
B1,glycan array binding signal (z-score),[1],-0.103
same,glycan array binding signal (z-score),[2],0.871
same,glycan array binding signal (z-score),[3],0.949
same,glycan array binding signal (z-score),Fuc(a1-4)GlcNAc,0.69
same,glycan array binding signal (z-score),Fuc(b1-3)GlcNAc,1.35
same,glycan array binding signal (z-score),Gal(a1-2)Gal,0.188
same,glycan array binding signal (z-score),Gal(a1-3)Gal,-0.33
same,glycan array binding signal (z-score),Gal(a1-3)Gal(b1-3)GlcNAc,-0.481
same,glycan array binding signal (z-score),[4],-0.5
same,glycan array binding signal (z-score),[5],0.626
same,glycan array binding signal (z-score),[6],0.497
same,glycan array binding signal (z-score),[7],-0.022
same,glycan array binding signal (z-score),[8],0.223
same,glycan array binding signal (z-score),Gal(a1-3)Gal(b1-4)Glc,-0.124
same,glycan array binding signal (z-score),Gal(a1-3)Gal(b1-4)GlcNAc,-0.399
same,glycan array binding signal (z-score),[9],-0.094
same,glycan array binding signal (z-score),[10],-0.407
same,glycan array binding signal (z-score),[11],-0.607
same,glycan array binding signal (z-score),[12],0.08
same,glycan array binding signal (z-score),[13],-0.426
same,glycan array binding signal (z-score),[14],0.144
same,glycan array binding signal (z-score),Gal(a1-3)GalNAc,-0.34
same,glycan array binding signal (z-score),[15],2.05
same,glycan array binding signal (z-score),[16],-0.248
same,glycan array binding signal (z-score),Gal(a1-4)Gal(b1-4)Glc,0.305
same,glycan array binding signal (z-score),Gal(a1-4)Gal(b1-4)GlcNAc,0.051
same,glycan array binding signal (z-score),[17],0.496
same,glycan array binding signal (z-score),[18],-0.742
same,glycan array binding signal (z-score),Gal(a1-4)GlcNAc,-0.567
same,glycan array binding signal (z-score),Gal(a1-6)Glc,0.257
same,glycan array binding signal (z-score),Gal(b1-2)Gal,0.409
same,glycan array binding signal (z-score),Gal(b1-3)Gal,-0.757
same,glycan array binding signal (z-score),Gal(b1-3)Gal(b1-4)GlcNAc,-0.2
same,glycan array binding signal (z-score),Gal(b1-3)GalNAc,-0.065
same,glycan array binding signal (z-score),[19],-0.427
same,glycan array binding signal (z-score),[20],0.218
same,glycan array binding signal (z-score),Gal(b1-3)GalNAc(b1-3)Gal,-0.316

# Two records picked at random from those above:
binder,measurement,setting,value
B1,glycan array binding signal (z-score),[5],0.626
same,glycan array binding signal (z-score),[7],-0.022
